Measured values taken from patent US20220064324A1 (US Dept. of Health and Human Services, published 2022).
These are yes or no findings as the source states them, for the method shown. Some results given as binding are weak or reduced against the parent protein; the word gives no strength.

Chains of the proteins cited; added tags and fusions are not shown. Lines headed by an entry give the natural chain unless they say otherwise; changes in a name come on top.
UniProt Q13421: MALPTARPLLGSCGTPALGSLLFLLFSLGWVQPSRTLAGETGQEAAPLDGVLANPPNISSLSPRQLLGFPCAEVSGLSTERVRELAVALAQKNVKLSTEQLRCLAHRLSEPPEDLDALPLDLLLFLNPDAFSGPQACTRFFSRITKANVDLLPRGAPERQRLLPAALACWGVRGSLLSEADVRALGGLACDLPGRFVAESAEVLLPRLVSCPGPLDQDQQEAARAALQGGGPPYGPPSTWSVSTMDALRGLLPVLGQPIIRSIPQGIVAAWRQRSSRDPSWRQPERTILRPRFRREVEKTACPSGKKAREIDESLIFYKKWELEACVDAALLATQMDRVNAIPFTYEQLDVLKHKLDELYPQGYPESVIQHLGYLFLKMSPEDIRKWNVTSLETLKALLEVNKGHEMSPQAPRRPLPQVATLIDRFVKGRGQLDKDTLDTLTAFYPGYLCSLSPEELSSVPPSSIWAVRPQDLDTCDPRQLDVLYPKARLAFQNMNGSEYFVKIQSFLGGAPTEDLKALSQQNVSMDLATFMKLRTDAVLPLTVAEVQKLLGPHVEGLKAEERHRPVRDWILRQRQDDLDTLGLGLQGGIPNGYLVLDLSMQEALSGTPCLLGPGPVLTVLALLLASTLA

What was measured:
[1] = biological target: T1, mouse mesothelin protein (ELISA antigen) (mouse) (UniProt Q61468); assay: ELISA, single bars, VHH concentration not given; antigens rFc-mouse MSLN and R&D mouse MSLN
T1 sequence (looked up): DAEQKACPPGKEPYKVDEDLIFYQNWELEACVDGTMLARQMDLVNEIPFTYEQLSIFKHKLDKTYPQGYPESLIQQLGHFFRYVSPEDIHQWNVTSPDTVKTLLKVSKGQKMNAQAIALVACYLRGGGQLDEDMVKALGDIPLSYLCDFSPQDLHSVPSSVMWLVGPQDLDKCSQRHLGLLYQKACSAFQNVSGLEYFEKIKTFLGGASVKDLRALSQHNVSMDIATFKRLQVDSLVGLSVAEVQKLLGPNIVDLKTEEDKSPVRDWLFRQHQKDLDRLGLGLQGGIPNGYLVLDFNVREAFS

[2] = biological target: T1, mouse mesothelin protein (ELISA antigen) (mouse); assay: ELISA
[3] = biological target: human mesothelin protein (ELISA antigen) (human) (UniProt Q13421); assay: ELISA
[4] = biological target: full-length human mesothelin protein (human) (UniProt Q13421); assay: ELISA on mesothelin fragments
[5] = biological target: full-length human mesothelin protein (human) (UniProt Q13421); assay: ELISA on full-length mesothelin (called competitive ELISA in paragraph 233), VHH concentration not given
[6] = biological target: full-length human mesothelin protein (human) (UniProt Q13421); assay: competitive ELISA with mesothelin fragments
[7] = biological target: full-length human mesothelin protein (human) (UniProt Q13421); assay: ELISA, antigen printed as MSLN, VHH concentration not given
[8] = biological target: human mesothelin protein (ELISA antigen) (human) (UniProt Q13421); assay: ELISA, single bars, VHH concentration not given; antigens Fc-human MSLN and R&D human MSLN

Measured: binding

B1: G8 camel single-domain (VHH) monoclonal antibody (VHH)
VHH: QVKLEESGGGSVQAGGSLRLSCTTSGYTNSYKWMGWFRQAPGQEREGVAVIYTGNDRTYYSDSVKGRFTISRDNAKNMIYLDMTRLRPEDSAVYECAIGHDGAWRYWGQGTQVTVSS
notes: Isolated from a camel VHH phage display library; also called G8 antibody; G8 anti-mesothelin VHH antibody
binds: all assays above

B2: A101 camel single-domain (VHH) monoclonal antibody (VHH)
VHH: QVQLVESGGGTVQAGGSLKLACAASGLPRTYNVMGWFRQAPGKEREGVAIIYTTTGATYYRDSVKGRATISQDNAKKSVSLQMNSLRPEDTAIYYCVARQPNSGPWEYWGQGTQVTVSS
notes: Isolated from a camel VHH phage display library; also called A101 antibody; A101 anti-mesothelin VHH antibody
binds: all assays above
